Experiment [1] deals with T1, Polymerase δ interacting protein of 38 kDa (PDIP38), endogenous (human (endogenous in HeLa)) (UniProt Q9Y2S7).
T1 sequence: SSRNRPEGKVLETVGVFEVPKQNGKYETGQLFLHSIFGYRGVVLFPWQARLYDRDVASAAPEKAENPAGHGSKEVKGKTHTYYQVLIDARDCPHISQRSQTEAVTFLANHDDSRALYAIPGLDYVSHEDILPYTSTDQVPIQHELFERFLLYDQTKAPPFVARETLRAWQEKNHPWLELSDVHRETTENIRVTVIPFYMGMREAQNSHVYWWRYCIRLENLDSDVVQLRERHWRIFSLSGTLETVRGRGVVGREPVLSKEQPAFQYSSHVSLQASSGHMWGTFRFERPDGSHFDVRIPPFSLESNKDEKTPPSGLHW
As to the kind of experiment: co-IP.

By UniProt entry, the sequences of proteins in these tests, tags left out. Residues count along the entry.
UniProt O76031, residues 57-633: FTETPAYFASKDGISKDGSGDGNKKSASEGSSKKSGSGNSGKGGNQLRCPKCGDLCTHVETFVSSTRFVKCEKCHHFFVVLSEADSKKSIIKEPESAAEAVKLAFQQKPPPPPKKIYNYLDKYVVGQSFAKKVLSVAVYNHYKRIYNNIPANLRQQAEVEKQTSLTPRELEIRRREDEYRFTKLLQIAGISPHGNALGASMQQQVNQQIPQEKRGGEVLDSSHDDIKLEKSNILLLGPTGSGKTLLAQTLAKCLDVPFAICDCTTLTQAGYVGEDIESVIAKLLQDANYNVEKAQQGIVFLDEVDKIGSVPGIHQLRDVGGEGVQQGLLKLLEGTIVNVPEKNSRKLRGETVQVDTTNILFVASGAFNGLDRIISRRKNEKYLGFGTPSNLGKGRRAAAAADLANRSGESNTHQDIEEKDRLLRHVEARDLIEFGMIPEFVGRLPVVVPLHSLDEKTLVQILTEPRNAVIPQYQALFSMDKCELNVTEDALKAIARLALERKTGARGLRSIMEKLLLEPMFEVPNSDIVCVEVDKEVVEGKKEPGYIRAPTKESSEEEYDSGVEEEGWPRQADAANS
UniProt P0A6H1, residues 2-52: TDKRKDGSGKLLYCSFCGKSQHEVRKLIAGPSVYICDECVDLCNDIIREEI

For experiment [2], the target named is CLPX, endogenous (human (endogenous in HeLa)) (UniProt O76031). The experiment in a line: co-IP.
Experiment [3] deals with Escherichia coli ClpX (ecClpX) ZBD (ecZBD), H10-tagged (Escherichia coli) (UniProt P0A6H1). The experiment in a line: pull-down.

Results are given in words; binding and its absence hold for the method and conditions named. In cells and extracts the contact can be indirect. Some results given as binding are weak or reduced against the parent protein; the word gives no strength. For part of these data: Where a sequence is shown, tags or fusion partners need not be part of it.

Consider “CLPX, endogenous (from UniProt O76031 57-633)”, for which, in experiment [1], the binding entry is recorded as “binds”.

B1: Polymerase δ interacting protein of 38 kDa (PDIP38), endogenous (protein, UniProt Q9Y2S7 52-368)
chain: T1 sequence
Take B1: the binding entry in experiment [2] is reported as “binds”.

B2: GST-PDIP38 (protein, UniProt Q9Y2S7 52-368)
chain: T1 sequence
Take B2: the binding entry in experiment [3] is given as “no binding”.

The record behind these values is paper doi:10.1101/2020.05.19.105320.
